Results taken from paper PMC4783296, “Structural basis underlying CAC RNA recognition by the RRM domain of dimeric RNA-binding protein RBPMS”.
A weaker result is weaker than the reference pair of the same experiment.

Sequences of proteins named here, by UniProt entry; tags and fusion partners are left off. Residues count along the entry.
UniProt Q93062, 14-111 R38Q: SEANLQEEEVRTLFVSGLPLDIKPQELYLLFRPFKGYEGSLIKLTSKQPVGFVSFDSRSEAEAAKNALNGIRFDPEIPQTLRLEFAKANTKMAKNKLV
UniProt Q93062, 14-111 K36E/R38E: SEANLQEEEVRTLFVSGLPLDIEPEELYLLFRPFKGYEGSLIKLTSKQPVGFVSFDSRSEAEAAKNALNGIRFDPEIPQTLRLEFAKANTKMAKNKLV
UniProt Q93062, 14-111 R38A/E39A: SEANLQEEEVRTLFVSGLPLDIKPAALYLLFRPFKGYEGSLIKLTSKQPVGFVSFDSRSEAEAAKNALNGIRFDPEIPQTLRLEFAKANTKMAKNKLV

Key:
Assay in all cases: ITC
Conditions in all cases: Kd printed only in figure; ITC: 20 mM Tris-HCl pH 7.5, 100 mM NaCl, 25 C; 0.03-0.05 mM protein in cell, 0.26-0.5 mM RNA in syringe, single-site model; recombinant protein; residues 14-111; protein details: 6His-SUMO removed with Ulp1
RBPMS RRM R38Q (human) = RBPMS RRM R38Q (human) (UniProt Q93062)
[1] = molecular target: RBPMS RRM K36E/R38E (human) (UniProt Q93062)
[2] = molecular target: RBPMS RRM R38A/E39A (human) (UniProt Q93062)

Measured: binding result

GCACUUUCAACUUCACU [ETF1 17-nt RNA]
binds more weakly: RBPMS RRM R38Q (human) | [1] | [2]
